Experimental data taken from article PMC5177890, “Controlled Orientation of Active Sites in a Nanostructured Multienzyme Complex” (Scientific Reports, 2016).
These are yes or no findings as the source states them, for the method shown.

Target: Mannitol-2-dehydrogenase from Pseudomonas fluorescens, wild type (Pseudomonas fluorescens) (UniProt O08355)
Assay: SEC; size exclusion chromatography of the enzyme in solution (Supplementary Fig. 1); conditions not told in the main text; both purified

B1: Mannitol-2-dehydrogenase from Pseudomonas fluorescens, wild type (enzyme, UniProt O08355 1-493)
chain: MKLNKQNLTQLAPEVKLPAYTLADTRQGIAHIGVGGFHRAHQAYYTDALMNTGEGLDWSICGVGLRSEDRKARDDLAGQDYLFTLYELGDTDDTEVRVIGSISDMLLAEDSAQALIDKLASPEIRIVSLTITEGGYCIDDSNGEFMAHLPQIQHDLAHPSSPKTVFGFICAALTQRRAAGIPAFTVMSCDNLPHNGAVTRKALLAFAALHNAELHDWIKAHVSFPNAMVDRITPMTSTAHRLQLHDEHGIDDAWPVVCEPFVQWVLEDKFVNGRPAWEKVGVQFTDDVTPYEEMKIGLLNGSHLALTYLGFLKGYRFVHETMNDPLFVAYMRAYMDLDVTPNLAPVPGIDLTDYKQTLVDRFSNQAIADQLERVCSDGSSKFPKFTVPTINRLIADGRETERAALVVAAWALYLKGVDENGVSYTIPDPRAEFCQGLVSDDALISQRLLAVEEIFGTAIPNSPEFVAAFERCYGSLRDNGVTTTLKHLLKKPV
B1 was tested, and the binding was “no binding”.
